# Assay results reported in ChEMBL document CHEMBL4303122, “Identification of potential treatments for COVID-19 through artificial intelligence-enabled phenomic analysis of human cells infected with SARS-CoV-2” (2020).
# The full ranking holds about 1,600 compounds; the median of “Hit score” is about 0.13, and the highest 2% start at about 0.46. The list shows a part of the results.
# Tested on: SARS-CoV-2
# Assay: Antiviral activity against SARS-CoV-2 (USA-WA1/2020 strain) measured by imaging in HRCE cells at MOI 0.4 after 96 hrs (reported as hit score from 0-1 for on-disease vs off-disease activity: scores >0.6 considered hits)
# Format: functional, Homo sapiens
row,Structure (SMILES),Hit score
1,C=C1/C(=C\C=C2/CCC[C@]3(C)[C@@H]([C@H](C)/C=C/[C@@H](O)C4CC4)CC[C@@H]23)C[C@@H](O)C[C@@H]1O [CALCIPOTRIENE],0.6212
2,CN(C)[C@@H]1C(O)=C(C(N)=O)C(=O)[C@@]2(O)C(O)=C3C(=O)c4c(O)c(NC(=O)CN5CCCC5)cc(F)c4C[C@H]3C[C@@H]12.Cl.Cl [ERAVACYCLINE DIHYDROCHLORIDE],0.2526
3,CCOc1ccc(Cc2cc([C@@H]3O[C@H](CO)[C@@H](O)[C@H](O)[C@H]3O)ccc2Cl)cc1 [DAPAGLIFLOZIN],0.2268
4,CCCCCCC(=O)O[C@H]1CC[C@H]2[C@@H]3CCC4=CC(=O)CC[C@]4(C)[C@H]3CC[C@]12C [TESTOSTERONE ENANTHATE],0.1237
5,O=C(CN1CCN(Cc2ccc3c(c2)OCO3)CC1)N1c2ccccc2Sc2ccccc21 [FENOVERINE],0.06568
6,CCN1CCC[C@H]1CNC(=O)c1cc(S(N)(=O)=O)ccc1OC [LEVOSULPIRIDE],0.1209
7,CCOc1nc2cccc(C(=O)OC(C)OC(=O)OC3CCCCC3)c2n1Cc1ccc(-c2ccccc2-c2nn[nH]n2)cc1 (stereo not given) [CANDESARTAN CILEXETIL],0.1602
8,C[C@H]1C[C@H]2[C@@H]3CCC4=CC(=O)C=C[C@]4(C)[C@@]3(Cl)[C@@H](O)C[C@]2(C)[C@@]1(O)C(=O)CO [BECLOMETHASONE],0.1286
9,CCCNS(=O)(=O)Nc1ncnc(OCCOc2ncc(Br)cn2)c1-c1ccc(Br)cc1,0.09467
10,CCOC(=O)CSCCC1NC(C(=O)O)CS1 (stereo not given) [LETOSTEINE],0.08225
11,CC1=C(C(=O)OCCN(Cc2ccccc2)c2ccccc2)C(c2cccc([N+](=O)[O-])c2)C(P2(=O)OCC(C)(C)CO2)=C(C)N1 (stereo not given) [EFONIDIPINE],0.1344
12,C[C@@H]1C[C@H]2[C@@H]3C[C@H](F)C4=CC(=O)C=C[C@]4(C)[C@@]3(F)[C@@H](O)C[C@]2(C)[C@@]1(O)C(=O)COC(=O)C(C)(C)C [FLUMETHASONE PIVALATE],0.4081
13,CCOC(=O)c1ccc(C#Cc2ccc3c(c2)C(C)(C)CCS3)nc1 [TAZAROTENE],0.2393
14,CCC(C)(C)c1ccc(CC(C)CN2C[C@@H](C)O[C@@H](C)C2)cc1 (stereo not given in full) [AMOROLFINE],0.3007
15,O=c1[nH]c(=O)n([C@H]2C[C@H](O)[C@@H](CO)O2)cc1/C=C/Br [BRIVUDINE],0.05949
16,NC(=O)c1cccnc1 [NIACINAMIDE],0.1289
17,Cn1c(=O)c2c(ncn2CC(O)CO)n(C)c1=O (stereo not given) [DYPHYLLINE],0.2241
18,CCCc1nc(C(C)(C)O)c(C(=O)OCc2oc(=O)oc2C)n1Cc1ccc(-c2ccccc2-c2nnn[nH]2)cc1 [OLMESARTAN MEDOXOMIL],0.1098
19,CC(=O)[C@@]1(O)CC[C@H]2[C@@H]3C[C@H](C)C4=CC(=O)CC[C@]4(C)[C@H]3CC[C@@]21C,0.2069
20,CCCCCCCCCCCCCCCC[N+](C)(C)C [CETRIMONIUM],0.2709

row,Structure (SMILES),Hit score
1,NC(=O)C1(N2CCCCC2)CCN(CCCC(=O)c2ccc(F)cc2)CC1 [PIPAMPERONE],0.123
2,CNC1(C)C2CCC(C2)C1(C)C (stereo not given) [MECAMYLAMINE],0.1041
3,C=C1[C@H](CO)[C@@H](O)C[C@@H]1n1cnc2c(=O)[nH]c(N)nc21.O,0.1346
4,CC(C)(Oc1ccc(C2CC2(Cl)Cl)cc1)C(=O)O (stereo not given) [CIPROFIBRATE],0.1099
5,OC(c1ccccc1)(c1ccccc1)C12CC[N+](CCOCc3ccccc3)(CC1)CC2.[Br-] [UMECLIDINIUM BROMIDE],0.1319
6,CC1(C)O[C@@H]2C[C@H]3[C@@H]4C[C@H](F)C5=CC(=O)C=C[C@]5(C)[C@H]4[C@@H](O)C[C@]3(C)[C@]2(C(=O)CO)O1 [FLUNISOLIDE],0.1937
7,CC1(C)O[C@@H]2[C@@H](CO[C@@]3(COS(N)(=O)=O)OC(C)(C)O[C@@H]23)O1 [TOPIRAMATE],0.1748
8,CCn1cc(C(=O)O)c(=O)c2cc(F)c(N3CCNCC3)cc21 [NORFLOXACIN],0.1871
9,CCOC(=O)C1=C(C)NC(C)=C(C(=O)OC)C1c1cccc([N+](=O)[O-])c1 (stereo not given) [NITRENDIPINE],0.1479
10,CC[C@H](C)C(=O)O[C@H]1C[C@@H](C)C=C2C=C[C@H](C)[C@H](CC[C@@H]3C[C@@H](O)CC(=O)O3)[C@H]21 [LOVASTATIN],-0.08588
11,NS(=O)(=O)c1cc2c(cc1C(F)(F)F)NC(Cc1ccccc1)NS2(=O)=O (stereo not given) [BENDROFLUMETHIAZIDE],0.1205
12,CNC(=O)c1ccccc1Sc1ccc2c(/C=C/c3ccccn3)n[nH]c2c1 [AXITINIB],0.3944
13,CC(CN1c2ccccc2Sc2ccccc21)N(C)C (stereo not given) [PROMETHAZINE],0.1366
14,CNC(=O)c1ccc(N2C(=S)N(c3cnc(C#N)c(C(F)(F)F)c3)C(=O)C23CCC3)cc1F [APALUTAMIDE],0.1472
15,COc1cc2c(c(OC)c1OC)-c1ccc(OC)c(=O)cc1[C@@H](NC(C)=O)CC2 [COLCHICINE],0.376
16,O=C(c1ccc(OCCN2CCCCC2)cc1)c1c(-c2ccc(O)cc2)sc2cc(O)ccc12 [RALOXIFENE],0.2342
17,CN1CCN(c2ccc(C(=O)Nc3n[nH]c4ccc(Cc5cc(F)cc(F)c5)cc34)c(NC3CCOCC3)c2)CC1 [ENTRECTINIB],0.04314
18,CC1=C(/C=C/C(C)=C/C=C/C(C)=C/C=O)C(C)(C)CCC1 [RETINAL],0.3836
19,CCCC(CCC)C(=O)O.CCCC(CCC)C(=O)[O-].[Na+] [DIVALPROEX SODIUM],0.2277
20,Nc1nc(N)nc(-c2cc(Cl)ccc2Cl)n1 [IRSOGLADINE],0.4068

# A different layout for two compounds above:
row | Structure (SMILES) | Hit score
3 | C=C1[C@H](CO)[C@@H](O)C[C@@H]1n1cnc2c(=O)[nH]c(N)nc21.O | 0.1346
11 | NS(=O)(=O)c1cc2c(cc1C(F)(F)F)NC(Cc1ccccc1)NS2(=O)=O (stereo not given) [BENDROFLUMETHIAZIDE] | 0.1205
